Measurements published in patent US20130266605A1, “PEPTIDE INHIBITORS OF CD40L SIGNALING AND USES THEREFOR” (PHYLOGICA LIMITED, priority 2010, published 2013).
Results are given in words; binding and its absence hold for the method and conditions named. Some entries that bind do so weakly or less than the wild type.

T1: CD40 ligand (UniProt P29965 108-261, limits assumed)
T1 sequence (looked up): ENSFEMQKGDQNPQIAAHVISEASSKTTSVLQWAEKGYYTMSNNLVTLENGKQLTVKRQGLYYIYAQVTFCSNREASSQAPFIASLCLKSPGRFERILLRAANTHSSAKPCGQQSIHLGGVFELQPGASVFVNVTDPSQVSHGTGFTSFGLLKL


Molecular target: T1, CD40 ligand
Test: phage display screen on CD40L

| binding | Binder |
| --- | --- |
| binds | C02_40L_0405_1048 (peptide) peptide: LYEYNADTPTSIYEAGVFQWLWLEDMIQQGALPEATDQFNSLHDQLAERFKAIFPNGGFVHFA |
| binds | C03_40L_0203_1175 (peptide) peptide: PRMEWNVLQWNGMESNELVSNGTEWNGMDWNAMEWNRMEWNGMEWNQSEWNGRELNGMEWKGMEWNGMEWNGTNPSGME |
| binds | M08_40L_0105_0912 (peptide) peptide: LVCTYSYQNDAYRQFFEPDDESALLQELSEYLDDHGSEPIIHYGGNYFDEQCLSRRFDE |
| binds | M07_40L_0104_0885 (peptide) peptide: REVLQLDDHVHVSPALAVQELLAKPHVGRRAVSVDVIAGHRPGDFLLRATLAMDPRVKPADDGGGWSWWFI |
| binds | C02_40L_0604_1080 (peptide) peptide: LYEYNADTPTSIYEAGVFQWLWLEDMIQQGALPEATDQFNSLHDQLAERFKAIFPN |
| binds | M09_40L_0204_1005 (peptide) peptide: PWNEMEWKGIEWNQPEWNGMERNGMEWNGMEWNGMEWNQLDWNGMEWNGLE |
| binds | C02_40L_0104_0979 (peptide) peptide: PWNEMEWKGIEWNQPEWNGMERNGMEWNGMEWNGMEWNQLDWNGMEWNGLE |
| binds | C02_40L_0204_0992 (peptide) peptide: LLGRDGWPVSIGPDSQMSLEVIDRHSEALFEFLWCPVCGHEVFSHIPFEGVFCK |
| binds | C02_40L_0205_0996 (peptide) peptide: LLGTPQNNAQAEVNLNINIGGPRYVGNYGPDFIYLDDYGFAVSWGWDYDVIRLGNFYFIYRDGYWF |
| binds | C02_40L_0804_1169 (peptide) peptide: RLEWNGMELNGITPSEMAWKGTEYNLMEWNGINPSGMEWIGMEWNGMEWKGMEWNGMEWFQLE |
| binds | C02_40L_0105_0983 (peptide) peptide: QVLRTLQVVTCRAGELEIRLETLEDGYPEWHPASYPFQGILKLFFYREITGN |
| binds | C02_40L_0105_0985 (peptide) peptide: QVLRTLQVVTCRAGELEIRLETLEDGYPEWHPASYPFQGILKLFFYREITGN |
| binds | C02_40L_0105_0987 (peptide) peptide: QVLRTLQVVTCRAGELEIRLETLEDGYPEWHPASYPFQGILKLFFYREITGN |
| binds | C02_40L_0105_0986 (peptide) peptide: QVLRTLQVVTCRAGELEIRLETLEDGYPEWHPASYPFQGILKLFFYREITGN |
| binds | C02_40L_0603_1077 (peptide) peptide: LWIGINTNGMQWNGMQWQRMEWNGMEWHKPEWYGMEWNGMEWNGMEWKGIE |
| binds | M09_40L_0105_0935 (peptide) peptide: LWIGINTNGMQWNGMQWQRMEWNGMEWHKPEWYGMEWNGMEWNGMEWKGIE |
| binds | M09_40L_0105_0931 (peptide) peptide: LWIGINTNGMQWNGMQWQRMEWNGMEWHKPEWYGMEWNGMEWNGMEWKGIE |
| binds | M08_40L_0105_0902 (peptide) peptide: LLGEDMIEQLGRAHMSWGLGSADRWDLDQTTGIITWTFPDKTAAAPAQILGSFSPGSGSWLWAWANK |
| binds | C02_40L_0803_1145 (peptide) peptide: RGIEVGDPSSGNETGPTGKPFTTTIPSEVGATEISGSGKEIQPAQLMNDLPNSESAEQVRERTRDLVQWFNYALPDFVFVEEDSGYWGDTQDFSMPTGDDYELNTCIFSWYWCGLWSCDNRGGRIVCLRENRYTSEYTGW |
| binds | C02_40L_0304_1028 (peptide) peptide: LCDPNGRAEAIPEAKSDVTVTHQFITIWSEWIRMDVLMTGVYGRCGTAVIDHLHDDDAYDFTYLN |
| binds | C02_40L_0404_1045 (peptide) peptide: LGDPNGRAEAIPEAKSDVTVTHQFITIWSEWIRMDVLMTGVYGRCGTAVIDHLHDDDAYDFTYFN |
| binds | RCEDQVDVIAGHRPGDFLLRATLAMDPRVKPADDGGGWSWWFL [M07_40L_0104_0883] |
| binds | C02_40L_0504_1062 (peptide) peptide: RIPETRKAQAALATKYGIYGFCYYHYWFNGRRILESPVDAMLESGEPDFPFMLCWANENWT |

| binding | Binder |
| --- | --- |
| binds | M09_40L_0204_1006 (peptide) peptide: LGDINPLKRIVDSRQSKRLAERYLSESYWGDVIEASDDVWELVACPVDGALDAALWDAWLESLEEG |
| binds | C02_40L_0505_1072 (peptide) peptide: LGRDGWPVSIGPDSQMSLEVIDRHSEALFEFLWCPVCGHEVFSHIPFEGVFC |
| binds | PVEKLNNLTGTPLVASFTLFVCQSGQNTLLECTLIV [C02_40L_0803_1122] |
| binds | PVEKLNNLTGTPLVASFTLFVCQSGQNTLLECTLIV [C02_40L_0804_1172] |
| binds | C02_40L_0803_1125 (peptide) peptide: LSACTPSGCTHPGSRGDDLQMATQWIFTLRCRTVGNSTRDVRISTQGSPHIELIDPFGNGALWVIL |
| binds | C02_40L_0804_1148 (peptide) peptide: LSACTPSGCTHPGSRGDDLQMATQWIFTLRCRTVGNSTRDVRISTQGSPHIELIDPFGNGALWVIL |
| binds | C02_40L_0803_1127 (peptide) peptide: LSACTPSGCTHPGSRGDDLQMATQWIFTLRCRTVGNSTRDVRISTQGSPHIELIDPFGNGALWVIL |
| binds | M09_40L_0204_1010 (peptide) peptide: RNEVEWNGMERNGMEWSGMELNGTQWNEVEWSRMEWNGWEWNGMEWNGMEWNGEEWSGVE |
| binds | C02_40L_0203_0988 (peptide) peptide: LWWDGTVAGLEYFTAGFDGFEIEWADAAGEYGFTKERLYELDSDLHLVDPVWVTMQDNWNRSDTDEVADNIGPWFGNYY |
| binds | C02_40L_0304_1027 (peptide) peptide: LLGTPQNNAQAEVNLNINIGGPRYVGNYGPDFIYLDDYGFAVSWGWDYDVIR |
| binds | LWCEWELEWNGMEWNGMEWNGMEWNAMECNGFNSIAMEWNAMEWNQPE [C02_40L_0705_1114] |
| binds | C02_40L_0803_1123 (peptide) peptide: LWWLCYQDDEISTEATNEIGLPKYGTDEKQDALRKYYAAYFNVEGGDSGTFTDYKWDCFWAHRHAIMH |
| binds | C02_40L_0803_1120 (peptide) peptide: LWWLCYQDDEISTEATNEIGLPKYGTDEKQDALRKYYAAYFNVEGGDSGTFTDYKWDCFWAHRHAIMH |
| binds | HLPRPGFCDARSHGDSNFEDLFYFILCGTH [C03_40L_0103_0942] |
| binds | M06_40L_0104_0839 (peptide) peptide: PGVVRSCVEWSGIDWSCEELCGVEWNGVEWKGVEWNGMEWNGMELNGREWSGTEENGVEWSGVERSGSW |
| binds | LSLYCRNHRVECFCCHTGGDRSELPSTHYSTSSGFMQVYDFFGVPFVLEY [M09_40L_0205_1016] |
| binds | M07_40L_0104_0893 (peptide) peptide: LWNGIIRNGMERNGMEWNGMEWNGMEWNGMEWVRIEWNGMDSNGIAWNGMDSNAMERNALEWNGMDSKAMEWNGIDWNGMEWNGLEWNHHRMESNGIIEWNRMESSNRLERNRQ |
| binds | C02_40L_0205_0998 (peptide) peptide: LGHIWASDVENAASFEPVDVGDEEAYKAGLLWLERLTMSDNGLRQLALFEWDEDGNLTKEWHAE |
| binds | M08_40L_0105_0910 (peptide) peptide: LGHIWASDVENAASFEPVDVGDEEAYKAGLLWLERLTMSDNGLRQLALFEWDEDGNLTKEWHAE |
| binds | C02_40L_0303_1020 (peptide) peptide: LFGSRPLSRSCLELLHEESEISVEAVVTHPEGHDGWWDGALRSKAEEYGYPVIEENEVFECELDYIISVLYYEILDAELLEHPKQGGLNLHQAELPRYRG |
| binds | C02_40L_0704_1100 (peptide) peptide: LFGSRPLSRSCLELLHEESEISVEAVVTHPEGHDGWWDGALRSKAEEYGYPVIEENEVFECELDYIISVLYYEILDAELLEHPKQGGLNLHQAELPRYRG |
| binds | C02_40L_0503_1053 (peptide) peptide: LFGSRPLSRSCLELLHEESEISVEAVVTHPEGHDGWWDGALRPKAEEYGYPVIEENEVFECELDYIISVLYYEILDAELLEHPKQGGLNLHQAELPRYRG |
| binds | M07_40L_0104_0889 (peptide) peptide: LPKYGTDEKQDALRRYYAAYFNVEGGDSGTFTDYKWDCLWSCDNRGGRIVCLRENRYTSE |
